Data as given in paper PMC7728445.
Results are given in words; binding and its absence hold for the method and conditions named. In cells and extracts the contact can be indirect. Some binding calls cover weakened binding; strength is not graded here.

Amino acid sequences for entries named in this document (tags omitted).
UniProt P08047: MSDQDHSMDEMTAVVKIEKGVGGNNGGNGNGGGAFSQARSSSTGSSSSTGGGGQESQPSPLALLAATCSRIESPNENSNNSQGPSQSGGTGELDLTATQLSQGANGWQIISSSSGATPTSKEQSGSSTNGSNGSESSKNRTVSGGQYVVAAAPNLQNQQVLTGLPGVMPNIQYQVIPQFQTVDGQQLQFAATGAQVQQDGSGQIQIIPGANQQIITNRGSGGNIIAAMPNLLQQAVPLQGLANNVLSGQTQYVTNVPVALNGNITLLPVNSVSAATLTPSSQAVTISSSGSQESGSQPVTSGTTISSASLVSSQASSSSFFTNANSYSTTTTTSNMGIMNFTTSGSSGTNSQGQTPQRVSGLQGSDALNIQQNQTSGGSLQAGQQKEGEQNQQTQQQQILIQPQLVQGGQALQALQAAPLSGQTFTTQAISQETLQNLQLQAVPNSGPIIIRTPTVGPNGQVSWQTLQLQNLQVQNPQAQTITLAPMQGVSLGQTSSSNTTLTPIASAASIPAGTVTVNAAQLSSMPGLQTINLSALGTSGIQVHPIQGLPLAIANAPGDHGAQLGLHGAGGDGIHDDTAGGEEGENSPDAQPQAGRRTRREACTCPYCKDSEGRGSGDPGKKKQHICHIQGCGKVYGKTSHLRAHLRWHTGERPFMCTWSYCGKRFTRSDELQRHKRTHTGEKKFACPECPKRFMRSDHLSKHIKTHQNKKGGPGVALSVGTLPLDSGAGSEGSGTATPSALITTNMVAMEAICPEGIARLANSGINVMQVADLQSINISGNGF
UniProt Q09472: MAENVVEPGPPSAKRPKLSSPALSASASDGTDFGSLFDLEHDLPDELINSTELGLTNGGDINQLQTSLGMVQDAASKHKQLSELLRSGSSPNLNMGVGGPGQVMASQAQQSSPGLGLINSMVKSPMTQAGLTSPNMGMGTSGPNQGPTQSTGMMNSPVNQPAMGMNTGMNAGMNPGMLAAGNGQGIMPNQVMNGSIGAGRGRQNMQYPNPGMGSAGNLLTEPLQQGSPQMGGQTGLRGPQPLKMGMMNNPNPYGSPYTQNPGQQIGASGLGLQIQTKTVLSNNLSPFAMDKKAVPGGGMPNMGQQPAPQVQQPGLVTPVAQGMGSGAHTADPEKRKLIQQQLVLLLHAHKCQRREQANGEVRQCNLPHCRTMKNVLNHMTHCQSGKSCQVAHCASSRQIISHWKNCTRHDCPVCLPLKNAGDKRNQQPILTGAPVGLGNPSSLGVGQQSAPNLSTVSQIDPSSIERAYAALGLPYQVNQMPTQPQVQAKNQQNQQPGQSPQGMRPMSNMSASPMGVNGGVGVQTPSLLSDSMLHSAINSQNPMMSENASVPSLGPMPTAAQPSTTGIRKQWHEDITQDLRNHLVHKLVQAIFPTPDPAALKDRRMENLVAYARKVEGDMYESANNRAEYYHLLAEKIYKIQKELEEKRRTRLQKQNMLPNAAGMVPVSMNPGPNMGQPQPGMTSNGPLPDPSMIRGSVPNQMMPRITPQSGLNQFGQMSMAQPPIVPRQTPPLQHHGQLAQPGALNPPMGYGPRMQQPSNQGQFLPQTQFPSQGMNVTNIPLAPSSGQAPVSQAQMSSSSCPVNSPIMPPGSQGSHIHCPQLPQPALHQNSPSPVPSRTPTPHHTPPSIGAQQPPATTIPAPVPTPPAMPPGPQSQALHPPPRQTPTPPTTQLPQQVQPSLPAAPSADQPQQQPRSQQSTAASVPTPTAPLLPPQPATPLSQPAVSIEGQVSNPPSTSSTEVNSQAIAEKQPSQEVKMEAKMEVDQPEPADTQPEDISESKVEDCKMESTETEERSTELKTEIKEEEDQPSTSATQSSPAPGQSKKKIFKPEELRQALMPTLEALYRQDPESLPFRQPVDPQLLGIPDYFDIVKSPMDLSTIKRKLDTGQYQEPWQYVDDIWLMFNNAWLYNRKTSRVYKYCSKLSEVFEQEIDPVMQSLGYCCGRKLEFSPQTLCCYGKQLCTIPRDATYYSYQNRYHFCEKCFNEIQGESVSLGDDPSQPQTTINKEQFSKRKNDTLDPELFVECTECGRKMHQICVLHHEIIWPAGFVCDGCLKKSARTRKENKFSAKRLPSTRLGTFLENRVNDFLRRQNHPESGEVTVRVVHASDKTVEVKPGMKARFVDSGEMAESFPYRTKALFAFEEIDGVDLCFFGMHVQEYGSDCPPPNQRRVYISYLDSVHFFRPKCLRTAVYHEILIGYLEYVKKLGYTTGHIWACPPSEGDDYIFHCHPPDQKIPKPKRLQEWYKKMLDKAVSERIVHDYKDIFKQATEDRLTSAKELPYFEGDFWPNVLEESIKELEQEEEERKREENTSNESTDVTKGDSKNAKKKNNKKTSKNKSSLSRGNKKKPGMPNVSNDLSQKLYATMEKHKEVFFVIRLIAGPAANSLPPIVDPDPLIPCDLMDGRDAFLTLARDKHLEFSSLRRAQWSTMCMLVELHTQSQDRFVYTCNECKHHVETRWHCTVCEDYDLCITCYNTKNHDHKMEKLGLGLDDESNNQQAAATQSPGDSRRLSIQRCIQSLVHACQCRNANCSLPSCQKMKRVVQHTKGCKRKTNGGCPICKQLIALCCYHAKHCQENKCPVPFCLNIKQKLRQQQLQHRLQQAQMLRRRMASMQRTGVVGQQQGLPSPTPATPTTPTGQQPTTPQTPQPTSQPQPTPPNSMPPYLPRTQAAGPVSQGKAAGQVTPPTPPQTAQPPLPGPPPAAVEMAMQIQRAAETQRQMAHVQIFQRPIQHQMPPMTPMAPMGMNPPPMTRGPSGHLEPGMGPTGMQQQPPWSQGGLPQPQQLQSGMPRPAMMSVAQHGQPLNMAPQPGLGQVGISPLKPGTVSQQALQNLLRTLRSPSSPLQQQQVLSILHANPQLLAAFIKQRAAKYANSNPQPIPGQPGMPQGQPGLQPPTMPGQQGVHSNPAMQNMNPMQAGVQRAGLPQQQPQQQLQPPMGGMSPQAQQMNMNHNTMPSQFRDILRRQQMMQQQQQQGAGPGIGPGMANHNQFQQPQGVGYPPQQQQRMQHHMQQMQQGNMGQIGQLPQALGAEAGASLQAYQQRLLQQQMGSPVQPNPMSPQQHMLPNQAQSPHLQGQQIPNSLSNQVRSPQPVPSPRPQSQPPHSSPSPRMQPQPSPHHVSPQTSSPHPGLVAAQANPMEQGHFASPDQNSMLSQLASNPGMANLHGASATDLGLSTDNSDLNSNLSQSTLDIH
UniProt Q96KQ7: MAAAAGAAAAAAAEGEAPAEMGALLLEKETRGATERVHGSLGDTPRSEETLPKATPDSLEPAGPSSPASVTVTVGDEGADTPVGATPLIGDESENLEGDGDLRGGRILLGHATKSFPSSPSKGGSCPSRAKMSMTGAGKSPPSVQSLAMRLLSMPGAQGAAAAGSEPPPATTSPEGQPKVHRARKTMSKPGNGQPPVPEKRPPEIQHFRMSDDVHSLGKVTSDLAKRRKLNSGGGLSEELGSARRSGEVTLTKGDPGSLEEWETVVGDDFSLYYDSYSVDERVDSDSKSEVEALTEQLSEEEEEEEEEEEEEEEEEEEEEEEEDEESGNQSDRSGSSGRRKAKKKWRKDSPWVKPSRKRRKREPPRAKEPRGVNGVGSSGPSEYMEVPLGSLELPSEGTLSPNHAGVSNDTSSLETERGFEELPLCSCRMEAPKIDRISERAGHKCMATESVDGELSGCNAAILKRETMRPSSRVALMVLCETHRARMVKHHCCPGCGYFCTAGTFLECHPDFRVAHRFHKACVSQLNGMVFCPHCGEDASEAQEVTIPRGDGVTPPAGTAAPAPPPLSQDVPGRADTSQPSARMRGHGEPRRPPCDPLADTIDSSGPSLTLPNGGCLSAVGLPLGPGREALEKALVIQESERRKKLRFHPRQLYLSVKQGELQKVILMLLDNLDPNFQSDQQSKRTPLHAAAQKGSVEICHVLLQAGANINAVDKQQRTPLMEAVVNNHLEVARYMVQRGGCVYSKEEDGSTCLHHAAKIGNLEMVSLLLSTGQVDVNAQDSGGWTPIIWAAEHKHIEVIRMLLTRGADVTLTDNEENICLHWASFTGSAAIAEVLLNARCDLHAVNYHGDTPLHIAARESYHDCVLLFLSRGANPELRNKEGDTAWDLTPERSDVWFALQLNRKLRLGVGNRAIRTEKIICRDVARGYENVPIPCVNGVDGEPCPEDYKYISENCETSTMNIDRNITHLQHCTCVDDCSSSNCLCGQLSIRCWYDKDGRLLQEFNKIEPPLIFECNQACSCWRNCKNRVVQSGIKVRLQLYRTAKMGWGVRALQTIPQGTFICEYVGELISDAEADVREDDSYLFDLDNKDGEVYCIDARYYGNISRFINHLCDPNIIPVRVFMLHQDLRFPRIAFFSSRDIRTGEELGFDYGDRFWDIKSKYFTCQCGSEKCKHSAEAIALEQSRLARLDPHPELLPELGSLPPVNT

Columns and labels:
[1] = target: Sp1 (human (endogenous in RD18, RD and HSMM)) (UniProt P08047); experiment: proximity ligation; Duolink in situ fluorescence PLA on endogenous proteins in cells (RD18, RD, HSMM), control (DMSO) and 2.5 uM UNC0642-treated; dots per nuclei counted by confocal microscopy
[2] = target: p300 (human (endogenous in RD18, RD and HSMM)) (UniProt Q09472); experiment: as above

Substance: EHMT2 (from UniProt Q96KQ7 1-1210)
- binding [1]: binds
- binding [2]: binds
